Out of some 390,000 compounds screened, about 610 (0.16%) were called active. This list was built around the results that the source calls inconclusive (neither active nor inactive); the mix of calls is not that of the screen. The call rests on the fitted dose curve; in most records, active means well fitted inhibition curve with a large enough effect; inconclusive means small, poorly fitted or top-dose-only effect, or effect the other way, or another doubt; inactive means no such curve, though single readings can be large or run the other way. A potency beside an inconclusive call is a rough fit, not a confirmed value.
Test: Nrf2 qHTS screen for inhibitors: counterscreen for cytotoxicity
Conditions: A549 ARE-Fluc cells, CellTiter-Fluor viability, 18-24 h; activity change, negative = cytotoxicity: at 46 µM (top of the series)
Method in brief: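 A549 ARE-Fluc cells in 5% FBS OPTI-MEM, 5000 cells/well, rested 2 h then exposed to compounds in concentration-response for 18-24 h at 37 °C. Viability by CellTiter-Fluor fluorescence (Ex 405/Em 525) after 30 min; luciferase luminescence (BugLite, 15 min, RT) read afterwards.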
In the case of `O=C(Nc1ccccc1C(F)(F)F)C1CCN(S(=O)(=O)c2ccccc2)CC1`, the “activity change, negative = cytotoxicity” value is reported as inactive: 0.0681%. With `CSc1nc(N(C)NC(=O)c2ccc(Cl)cc2)c2ccccc2n1` the Potency was inconclusive: 2.59 µM [falling, partial curve, poor fit]. For `CCOC(=O)C1CCCN(c2c(C(=O)c3ccc(OCC)cc3)cnc3ccccc23)C1` (centres undefined), the Potency was inconclusive: 20.6 µM [activator, partial curve, poor fit]. In the case of `Cc1ccc(N=C2N=C(N)c3ccccc32)cc1C`, the Potency is reported as inconclusive: 29.1 µM [falling, partial curve, poor fit]. In the case of `Cc1cc2c(cc1C)C(c1ccccc1OC(C)C)CC(=O)N2` (centres undefined), the Potency is reported as inconclusive: 14.6 µM [falling, partial curve, poor fit]. For `Cc1cccc(OCCC(=O)Nc2ccc(C)c(S(=O)(=O)N3CCOCC3)c2)c1`, the “activity change, negative = cytotoxicity” value was inactive: 3.55%. In the case of `COc1ccc2[nH]c(CN3CCN(CCC(C)C)C(CCO)C3)c(C)c2c1` (centres undefined), the Potency is reported as inconclusive: 29.1 µM [falling, partial curve, poor fit]. For `CN(C)CCCNC(=O)/C=C/c1ccc(OCc2c(F)cccc2Cl)cc1`, the Potency was inconclusive: 29.1 µM [falling, single point]. With `O=C1c2cccc(Cl)c2C(=O)c2c1cccc2N1CCCC1` the Potency was inconclusive: 23.1 µM [falling, partial curve, poor fit]. With `N#CC1=C(C2CC2)CC(c2ccccc2)C(C#N)=C1N` (centres undefined) the “activity change, negative = cytotoxicity” value was inactive: -6.13%. In the case of `COCCCn1c(=N)c(C(=O)NCc2cccnc2)cc2c(=O)n3cccc(C)c3nc21`, the Potency is reported as inconclusive: 7.31 µM [activator, partial curve]. For `Cc1ccn2c(Nc3ccccc3)c(-c3ccccn3)nc2c1`, the Potency was inconclusive: 23.1 µM [falling, single point]. For `O=C(Nc1cc(C(F)(F)F)ccc1N1CCOCC1)c1ccc(F)cc1`, the “activity change, negative = cytotoxicity” value was inactive: -4.43%. In the case of `N#CC1=C(SCC(=O)NC23CC4CC(CC(C4)C2)C3)NC(=O)C(C#N)C12CCCCC2` (centres undefined), the Potency is reported as inconclusive: 23.1 µM [falling, single point]. In the case of `COC(=O)c1ccc(NC(=O)CN(c2ccc(C)cc2)S(=O)(=O)c2c(C)nn(C)c2C)cc1`, the Potency is reported as inconclusive: 16.4 µM [activator, partial curve, poor fit]. For `COc1ccc(C(CNC(=O)c2cc(S(=O)(=O)Nc3cccc(C)c3)ccc2C)N2CCCC2)cc1` (centres undefined), the Potency was inconclusive: 18.4 µM [falling, single point]. In the case of `Cc1c(O)c(CN2CCCCC2)cc2c3c(c(=O)oc12)CCC3`, the Potency is reported as inconclusive: 29.1 µM [activator, single point]. With `Cc1cnc(NC(=O)CCCc2nc3ccccc3s2)s1` the Potency was inconclusive: 10.3 µM [falling, partial curve]. With `COc1ccc(C(=O)CCS(=O)(=O)c2ccc(C)cc2)cc1` the “activity change, negative = cytotoxicity” value was inactive: 0.839%. With `COc1ccc(S(=O)(=O)Nc2cc(Sc3ncn[nH]3)c(O)c3ccccc23)cc1` the Potency was inconclusive: 29.1 µM [falling, single point]. With `Cc1ccc(NC(=O)Cn2cc(S(=O)(=O)Cc3cccc(Cl)c3)c3ccccc32)cc1C` the “activity change, negative = cytotoxicity” value was inactive: -0.898%. With `COc1ccc2[nH]c(C(=O)Nc3ccccc3Cl)cc2c1` the Potency was inconclusive: 0.731 µM [activator, partial curve, poor fit]. For `COc1ccccc1-c1noc(-c2ccc(N3CCN(C)CC3)c([N+](=O)[O-])c2)n1`, the “activity change, negative = cytotoxicity” value was inactive: -1.27%. In the case of `CC(=O)OCCCNc1cc(SCc2ccco2)c2nonc2c1[N+](=O)[O-]`, the Potency is reported as active: 16.4 µM. In the case of `C[C@H](NC(=O)c1[nH]cnc1C(=O)Nc1cccc(Cl)c1)c1ccccc1`, the “activity change, negative = cytotoxicity” value is reported as inactive: -14.4%. With `CCOC(=O)c1c(C)c(-c2ccccc2)n(CC(=O)Nc2ccc(OCC)cc2)c1C` the “activity change, negative = cytotoxicity” value was inactive: -11.5%. For `Nc1n[nH]c(N)c1N=Nc1ccc(Cl)cc1`, the “activity change, negative = cytotoxicity” value was inactive: -19.7%. With `COc1ccccc1CNC(=O)CN1C(=O)NC(C)(c2ccc(C)cc2)C1=O` (centres undefined) the Potency was inconclusive: 5.8 µM [activator, partial curve, poor fit]. With `Cc1ccc(CSC2=Nc3ccccc3C3=NC(CC(=O)NCc4cccs4)C(=O)N23)c(C)c1` (centres undefined) the Potency was inconclusive: 29.1 µM [falling, single point]. In the case of `O=C(COC(=O)c1ccc([N+](=O)[O-])o1)NC1CCCC1`, the Potency is reported as inconclusive: 5.17 µM [activator, single point]. For `CCNC(=S)N(CCc1c(C)[nH]c2ccc(Cl)cc12)Cc1ccco1`, the Potency was inconclusive: 20.6 µM [falling, single point]. With `COc1ccc(/C=N/NC(=O)c2[nH]c(C)c(C(=O)N/N=C/c3ccc(OC)cc3)c2C)cc1` the “activity change, negative = cytotoxicity” value was inactive: 0.332%. With `COc1ccc(NC(=O)c2c(NCc3cccs3)sc3c2CCCC3)c(OC)c1` the Potency was inconclusive: 29.1 µM [falling, single point]. With `COC(=O)C(CCSC)NC(=O)Cn1ncc2c([nH]c3ccccc32)c1=O` (centres undefined) the “activity change, negative = cytotoxicity” value was inactive: -0.116%. In the case of `OCCCn1c(C2CCCN2c2nc(-c3ccc(F)cc3)cs2)nc2cc(Cl)c(N3CCCCC3)cc21` (centres undefined), the Potency is reported as inconclusive: 23.1 µM [falling, single point]. For `O=C1C=C(O)c2c(O)cc(O)c(O)c2C1=O`, the Potency was inconclusive: 20.6 µM [falling, partial curve, poor fit]. In the case of `O=C(Cc1ccccc1)N(Cc1cccnc1)c1nc2c(Cl)cccc2s1`, the “activity change, negative = cytotoxicity” value is reported as inactive: -15.2%. In the case of `Cc1nn(-c2ccccc2)c2sc(C(=O)N(Cc3ccco3)C(C)C(=O)NC(C)(C)C)cc12` (centres undefined), the Potency is reported as inconclusive: 32.6 µM [falling, partial curve, poor fit]. With `Cc1ccc(Sc2cnn(-c3ccccc3)c(=O)c2Cl)cc1` the “activity change, negative = cytotoxicity” value was inactive: 0.625%. With `Cc1cccc(C(=O)NC(C(=O)Nc2nc(-c3ccccn3)cs2)C(C)C)c1` (centres undefined) the Potency was inconclusive: 10.3 µM [falling, partial curve]. For `Cc1cccc(N/N=C(\C#N)S(=O)(=O)C(C)(C)C)c1`, the Potency was inconclusive: 32.6 µM [falling, single point]. For `O=C(Nc1cccc(-c2nc3cccnc3s2)c1)c1ccco1`, the “activity change, negative = cytotoxicity” value was inactive: -2.66%. With `Cc1ccc(C2=NN(C(=O)CSc3nccn3C)C(c3ccco3)C2)cc1` (centres undefined) the “activity change, negative = cytotoxicity” value was inactive: -7.99%. In the case of `CC(C)(C)C(=O)NNC(=O)COc1ccc2ccccc2c1Br`, the Potency is reported as inconclusive: 29.1 µM [activator, single point].

Source: PubChem BioAssay AID504648 (National Center for Advancing Translational Sciences (NCATS), 2011)
On the % scale 0 is the no-effect control and ±100 the full control effect; potency means the concentration at half of the fitted maximal effect.
